According to the supplement of paper PMC9135407:
Several values for one entry are separate records, joined by “and”; a condition that tells them apart may be missing. Equal entries are not always repeated. Structures can show the parent of a compound that is named as a salt. ± gives the standard deviation of the averaged measurements. The list shows a part of the results. Part of the spread comes from offsets between plates or batches.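 Culture-activated primary human stellate myofibroblasts, where regained lipid droplets signal inactivation. Value: share of Hoechst-counted cells above a per-plate Bodipy cutoff, in duplicate wells, with DMSO negative and nortriptyline positive controls on each plate. Hits: a control-normalized score above the plate's top-tenth-percentile nortriptyline wells, or one of a plate's three best wells. Final well concentrations are not given.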

Test system: primary human hepatic stellate cells (donor 1)
Experiment: percent Bodipy-positive cells; higher = more lipid droplet accumulation
Conditions: 48 h
[1] = library stock concentration: 10 mM
[2] = library stock concentration: 3.33 mM
[3] = library stock concentration: 1 mM
[4] = library stock concentration: 80 uM
[5] = library stock concentration: 400 uM
[6] = library stock concentration: 2 mM

Compound: C[C@@H]1CN(CCCn2c3ccccc3c3ccccc32)C[C@H](C)N1.Cl.Cl [Rimcazole dihydrochloride]
- percent Bodipy-positive cells [1]: 97.9 ± 1.5%

Compound: N=C(N)NCCN1CCCCCCC1 [Guanethidine sulfate]
- percent Bodipy-positive cells: 18.4 ± 3%
- percent Bodipy-positive cells (library stock concentration: 6.7 mM): 4.52 ± 0.44%
- percent Bodipy-positive cells [1]: 10.9 ± 0.44%

Compound: Cc1ccc2nc(NC(=O)CSc3nc4c(c(=O)n3-c3ccccc3)SCC4)sc2c1
- percent Bodipy-positive cells [2]: 18.6 ± 5.7%
- percent Bodipy-positive cells [1]: 86 ± 7.8%

Compound: CC(C)CCCC(C)NC(C)C (stereo not drawn)
- percent Bodipy-positive cells [1]: 32.4 ± 1.9%

Compound: C#C[C@]1(O)CC[C@H]2[C@@H]3CCC4=CC(=O)CC[C@@H]4[C@H]3CC[C@@]21CC [Norgestrel-(-)-D]
- percent Bodipy-positive cells: 15.6 ± 2.1%

Compound: C#C[C@]1(O)CC[C@H]2[C@@H]3CCC4=CC(=O)CC[C@@H]4[C@H]3CC[C@@]21CC [Levonorgestrel]
- percent Bodipy-positive cells [3]: 7.34 ± 1.7%
- percent Bodipy-positive cells [2]: 5.67 ± 2.8%
- percent Bodipy-positive cells (library stock concentration: 6.4 mM): 14 ± 0.64%
- percent Bodipy-positive cells [1]: 74.5 ± 7.1%

Compound: C#C[C@]1(O)CC[C@H]2[C@@H]3CCC4=CC(=O)CC[C@@H]4[C@H]3CC[C@@]21CC
- percent Bodipy-positive cells [1]: 34.6 ± 0.84%

Compound: O=S(c1ccccc1)c1ccc2nnnn2n1 (stereo not drawn)
- percent Bodipy-positive cells [1]: 81.6 ± 3.6%

Compound: CC(CN(C)C)CN1c2ccccc2Sc2ccccc21 (stereo not drawn) [Trimeprazine tartrate]
- percent Bodipy-positive cells: 55.5 ± 11%
- percent Bodipy-positive cells [1]: 83.3 ± 3.2%

Compound: CC1(C)[C@@H](OC(=O)CCC(=O)O)CC[C@]2(C)[C@H]3C(=O)C=C4[C@@H]5C[C@@](C)(C(=O)O)CC[C@]5(C)CC[C@@]4(C)[C@]3(C)CC[C@@H]12 [Carbenoxolone sodium]
- percent Bodipy-positive cells [1]: 19.6 ± 3.4%

Compound: CC1(C)[C@@H](OC(=O)CCC(=O)O)CC[C@]2(C)[C@H]3C(=O)C=C4[C@@H]5C[C@@](C)(C(=O)O)CC[C@]5(C)CC[C@@]4(C)[C@]3(C)CC[C@@H]12 [Carbenoxolone disodium salt]
- percent Bodipy-positive cells: 8.11 ± 2.4%

Compound: CCN(CC)CCCC(C)Nc1c2ccc(Cl)cc2nc2ccc(OC)cc12 (stereo not drawn) [Quinacrine 2HCl dihydrate]
- percent Bodipy-positive cells (library stock concentration: 5 mM): 98.1 ± 1.8%

Compound: Cn1cc(-c2ccc3c(c2)CCN3C(=O)Cc2cccc(C(F)(F)F)c2)c2c(N)ncnc21
- percent Bodipy-positive cells [2]: 38.9 ± 2.1%
- percent Bodipy-positive cells [1]: 80.6 ± 2.2%

Compound: Oc1cccc(-c2nc(N3CCOCC3)c3oc4ncccc4c3n2)c1
- percent Bodipy-positive cells [4]: 4.4 ± 0.11%
- percent Bodipy-positive cells [5]: 6.1% and 14.6%
- percent Bodipy-positive cells [3]: 8.93 ± 3%
- percent Bodipy-positive cells [6]: 17% and 17.9%
- percent Bodipy-positive cells [2]: 34.2% and 21.5%
- percent Bodipy-positive cells [1]: 79.3% and 58.5%

Compound: C#CCn1c(=O)c2c(ncn2C)n(C)c1=O [3,7-Dimethyl-1-propargylxanthine]
- percent Bodipy-positive cells [1]: 39.7 ± 4.6%

Compound: Cc1cc(SCc2sc(-c3ccc(C(F)(F)F)cc3)nc2C)ccc1OCC(=O)O
- percent Bodipy-positive cells [4]: 12.4 ± 0.66%
- percent Bodipy-positive cells [5]: 9.3 ± 1.6%
- percent Bodipy-positive cells [6]: 9.59 ± 8.4%
- percent Bodipy-positive cells [1]: 23.3 ± 5%

Compound: CC(=O)OCC(=O)[C@H]1CC[C@H]2[C@@H]3CCC4=CC(=O)CC[C@]4(C)[C@H]3CC[C@]12C [Desoxycorticosterone acetate]
- percent Bodipy-positive cells (library stock concentration: 5.4 mM): 6.45 ± 0.39%
- percent Bodipy-positive cells [1]: 37 ± 1.7%

Compound: CCCOc1ccc(C(=O)OCCN(CC)CC)cc1N [Proparacaine hydrochloride]
- percent Bodipy-positive cells: 7.9 ± 1.1%
- percent Bodipy-positive cells (library stock concentration: 6 mM): 4.66 ± 2%

Compound: CCCOc1ccc(C(=O)OCCN(CC)CC)cc1N [Proparacaine HCl]
- percent Bodipy-positive cells [2]: 7.6 ± 0.51%
- percent Bodipy-positive cells [1]: 15.8 ± 6.4%

Compound: CCCOc1ccc(C(=O)OCCN(CC)CC)cc1N [Proxymetacaine]
- percent Bodipy-positive cells [1]: 45 ± 1.6%

Compound: COC(=O)Nc1ccc2[nH]cc(CCNC(C)=O)c2c1
- percent Bodipy-positive cells [1]: 10.1 ± 1.1%

Compound: C=CCNC1=C2C[C@@H](C)C[C@H](OC)[C@H](O)[C@@H](C)C=C(C)[C@H](OC(N)=O)[C@@H](OC)C=CC=C(C)C(=O)NC(=CC1=O)C2=O [17-AAG (Tanespimycin)]
- percent Bodipy-positive cells [1]: 67.6 ± 0.98%

Compound: CCCCCCCCCCCCCCCC(=O)C1=C(O)[C@@H](CO)OC1=O
- percent Bodipy-positive cells (library stock concentration: 13.6 mM): 15.5 ± 2.8%

Compound: CNCCC[C@]12CC[C@H](c3ccccc31)c1ccccc12.Cl [Maprotiline hydrochloride]
- percent Bodipy-positive cells: 91.2 ± 3.8%

Compound: COc1cc2ncn(-c3cc(OCc4ccccc4C(F)(F)F)c(C(N)=O)s3)c2cc1OC
- percent Bodipy-positive cells [1]: 64.5 ± 2.2%

Compound: CCCCC/C=C\C/C=C\C/C=C\C/C=C\CCCC(=O)O [Arachidonic Acid]
- percent Bodipy-positive cells [3]: 31.6 ± 25%

Compound: CCCCC/C=C\C/C=C\C/C=C\C/C=C\CCCC(=O)O [Arachidonic acid (20:4, n-6)]
- percent Bodipy-positive cells [3]: 12.3 ± 3.2%

Compound: Cc1cc(C)c(S(=O)(=O)Nc2cccc(C(F)(F)F)c2)c(C)c1
- percent Bodipy-positive cells [1]: 26.7 ± 14%

Compound: CN1C2CCC1CC(OC(=O)C(O)c1ccccc1)C2 (stereo not drawn) [Homatropine Bromide]
- percent Bodipy-positive cells [2]: 12 ± 1.5%
- percent Bodipy-positive cells [1]: 31.1 ± 12%

Compound: CN1C2CCC1CC(OC(=O)C(O)c1ccccc1)C2 (stereo not drawn) [Homatropine bromide]
- percent Bodipy-positive cells [1]: 16.3 ± 5.4%

Compound: CC(N)(Cc1ccc(O)c(O)c1)C(=O)O (racemic) [(?)-3-(3,4-dihydroxyphenyl)-2-methyl-DL-alanine]
- percent Bodipy-positive cells [1]: 26.1 ± 3.5%

Compound: CN(C)CCC(c1ccc(Br)cc1)c1ccccn1 (single isomer, unassigned; (+)) [(+)-Brompheniramine maleate]
- percent Bodipy-positive cells [1]: 73.7 ± 9.7%

Compound: CC[C@@H](CO)NCCN[C@@H](CC)CO [Ethambutol hydrochloride]
- percent Bodipy-positive cells (library stock concentration: 7.2 mM): 4.87 ± 0.84%
- percent Bodipy-positive cells [1]: 8.38 ± 0.38%

Compound: CC[C@@H](CO)NCCN[C@@H](CC)CO [Ethambutol]
- percent Bodipy-positive cells [1]: 33.1 ± 7.9%

Compound: CC[C@@H](CO)NCCN[C@@H](CC)CO [Ethambutol HCl]
- percent Bodipy-positive cells [2]: 7.51 ± 1.4%
- percent Bodipy-positive cells [1]: 28 ± 1.2%

Compound: CC[C@@H](CO)NCCN[C@@H](CC)CO [Ethambutol dihydrochloride]
- percent Bodipy-positive cells: 22.8 ± 0.7%
